Consider 1 molecule from paper PMC5410327.

By UniProt entry, the sequences of proteins in these tests, tags left out.
UniProt Q86TM6: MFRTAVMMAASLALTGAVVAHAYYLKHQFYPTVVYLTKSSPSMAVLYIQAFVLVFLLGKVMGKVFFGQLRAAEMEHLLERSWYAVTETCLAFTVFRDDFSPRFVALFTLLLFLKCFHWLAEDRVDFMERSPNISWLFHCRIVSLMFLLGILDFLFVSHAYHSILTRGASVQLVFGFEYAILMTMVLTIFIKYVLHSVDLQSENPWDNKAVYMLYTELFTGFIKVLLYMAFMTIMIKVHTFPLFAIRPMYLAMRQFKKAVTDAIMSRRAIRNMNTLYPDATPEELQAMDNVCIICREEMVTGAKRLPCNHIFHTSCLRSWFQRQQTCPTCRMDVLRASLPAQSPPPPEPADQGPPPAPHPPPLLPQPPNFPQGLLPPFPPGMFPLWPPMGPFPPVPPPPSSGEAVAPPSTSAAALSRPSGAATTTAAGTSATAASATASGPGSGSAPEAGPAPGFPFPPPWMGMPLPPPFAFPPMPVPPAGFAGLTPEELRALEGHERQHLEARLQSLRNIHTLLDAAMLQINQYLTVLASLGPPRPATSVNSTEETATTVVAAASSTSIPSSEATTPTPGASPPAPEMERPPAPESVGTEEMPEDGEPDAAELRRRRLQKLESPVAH

In this test the target is HRD1 (overexpressed) (UniProt Q86TM6). Kind of test: affinity purification with mass spectrometry; MCF7 cells overexpressing Vector or HRD1; IP samples run on SDS-PAGE, stained with Coomassie Brilliant Blue, the two whole lanes cut out for proteome analysis.

Results are given in words; binding and its absence hold for the method and conditions named. Binding seen in cells or lysates may run through a third protein. A yes stands for co-enrichment or nearness to the bait. Other partners may have been found.

B1: S100A8 (protein, UniProt P05109 1-93)
chain: MLTELEKALNSIIDVYHKYSLIKGNFHAVYRDDLKKLLETECPQYIRKKGADVWFKELDINTDGAVNFQEFLILVIKMGVAAHKKSHEESHKE
As for B1, the binding entry is on record as “binds”.
